In all, about 190,000 compounds went through this assay and about 570 (0.3%) were called active. Inconclusive results, whose numbers are uncertain, are shown with a selection of clear calls.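 How the source made its calls: active means z-score above 3 at 5 µM with at least 500 cells counted in the well; inconclusive means wells under 500 cells, flagged as cytotoxic or low count; inactive means the rest.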
Assay: up-regulation of insulin promoter-GFP reporter – imaging, high-content screening, mouse beta cells (AID 1625)
Conditions: MIN6 insulin promoter-GFP reporter, at 5 µM, active compounds read high
For `O=C(Nc1ccn(Cc2ccc(F)cc2)n1)c1ccncc1`, the z-score was inconclusive: -3.18.
For `COc1ccc2c(c1)Cc1sc(NC(=O)c3ccco3)nc1-2`, the z-score was inactive: -0.56.
In the case of `CCOc1ccc2nc(SC3CC(=O)N(c4ccc(C)cc4)C3=O)sc2c1` (stereo unspecified), the z-score is reported as inactive: 0.53.
In the case of `CCN(C(=O)c1ccc(C(C)(C)C)cc1)c1nnc(Cn2nnc3ccccc32)s1`, the z-score is reported as inconclusive: -0.73.
In the case of `COc1ccc(OC)c(C2C3CN(C(C)C)CC=C3C(C#N)=C(N)C2(C#N)C#N)c1` (stereo unspecified), the z-score is reported as active: 17.1.
In the case of `Cc1ccc(NC(=O)COc2ccccc2CNC(C)(C)CC(C)(C)C)cc1`, the z-score is reported as inactive: -0.56.
With `OC1(c2cn(Cc3ccccc3)nn2)CCCCC1` the z-score was active: 5.88.
For `C1=C(N2CCOCC2)/C(=C/c2nc3ccccc3[nH]2)CC1`, the z-score was active: 3.43.
In the case of `Cc1ccc(-n2cc(CN3CCN(Cc4nccn4C)CC3)c(-c3cccc(C)c3)n2)cc1`, the z-score is reported as inactive: -0.59.
In the case of `O=S(=O)(Nc1cc(Sc2ncn[nH]2)c(O)c2ccccc12)c1ccccc1`, the z-score is reported as inconclusive: -5.14.
For `OCCN(Cc1ccccc1)CC(O)COc1ccc(-c2ccccc2)cc1` (stereo unspecified), the z-score was inactive: -0.06.
With `COC(=O)c1ccc2c(c1)C(C)(C)C(/C=C/c1ccc(O)cc1)=[N+]2C` the z-score was inconclusive: -2.14.
With `Cc1nn(-c2ccccc2Cl)c(Cl)c1/C=N/Nc1nc2ccccc2s1` the z-score was inactive: 0.42.
For `CCOC(=O)c1ccc(NC(=O)COc2ccc(S(=O)(=O)NC(C)CC)cc2)cc1` (stereo unspecified), the z-score was active: 3.08.
With `CCCCCc1cc(=O)oc2c(C(CCN3CCCC(C)C3)c3cc(OC)c(OC)c(OC)c3)c(OC)cc(OC)c12` (stereo unspecified) the z-score was inconclusive: -5.98.
In the case of `CC(C)Cn1c(N)c(C(=O)COC(=O)CC23CC4CC(CC(C4)C2)C3)c(=O)n(C)c1=O`, the z-score is reported as inconclusive: -8.06.
With `Cc1ccccc1C(=O)N1CCc2ccccc2C1` the z-score was active: 3.99.
In the case of `O=C(NC1(C(F)(F)F)NC(=O)N(c2ccccc2)C1=O)c1cccs1` (stereo unspecified), the z-score is reported as inactive: -0.16.
With `S=c1sc2c(Cl)ncnc2n1-c1ccccc1` the z-score was inconclusive: -5.33.
In the case of `CC1CCC/C=C/C(=O)c2c(O)cc(O)cc2CC(=O)O1` (stereo unspecified), the z-score is reported as inconclusive: -2.58.
In the case of `COc1cc(S(=O)(=O)N2CCOCC2)ccc1NC(=O)COC(=O)C12CC3CC(CC(C3)C1)C2`, the z-score is reported as active: 3.88.
With `CN(CCCC(=O)Nc1ccncc1)S(=O)(=O)c1ccc(Cl)cc1` the z-score was inconclusive: -7.19.
In the case of `COC(=O)c1sc2nc(CSc3nc4ccc(C)cc4[nH]3)[nH]c(=O)c2c1C`, the z-score is reported as inconclusive: -1.42.
With `CC(Cc1cccs1)NC(=O)Nc1cccc(Cl)c1` (stereo unspecified) the z-score was inconclusive: -5.17.
With `N#C/C(=C\c1cccs1)C(=O)c1ccccc1Cl` the z-score was inactive: 0.18.
In the case of `O=C(CO/N=C/c1ccccc1O)N1CCc2ccccc21`, the z-score is reported as inactive: 0.09.
In the case of `CCN1C(=O)C(C(=O)NC(C)c2ccccc2)C2CC1(C)Oc1ccccc12` (stereo unspecified), the z-score is reported as inconclusive: -3.1.
With `O=C(CCl)N(c1ccc(Cl)cc1)c1c[nH]c2ccccc12` the z-score was inconclusive: -3.77.
In the case of `Oc1ccccc1-c1nnc(SCCN2CCOCC2)n1Cc1ccccc1`, the z-score is reported as inconclusive: -0.17.
In the case of `O=C(CSc1ncccn1)Nc1cc(Cl)ccc1[N+](=O)[O-]`, the z-score is reported as inactive: 0.18.
For `O=C(COC(=O)C1CC(O)CN1C(=O)Oc1ccccc1)c1ccc(Br)cc1` (stereo unspecified), the z-score was inconclusive: -5.37.
With `Cn1nc(-c2ccccn2)nc2c(=O)n(C)c(=O)nc1-2` the z-score was inconclusive: -1.73.
For `S=C1Cc2ccccc2N1`, the z-score was inconclusive: -3.94.
In the case of `CC(C)NC(=O)NC(=O)COC(=O)c1cccc(S(=O)(=O)N2CCCCC2)c1`, the z-score is reported as active: 4.62.
For `CCOc1ccc(-n2c(-c3ccccc3)c[n+]3c2CCC3)cc1`, the z-score was inconclusive: -3.71.
For `COc1ccc(-n2nc(C#N)c(Cl)cc2=O)cc1`, the z-score was inconclusive: -3.98.
In the case of `CSc1cccc(NC(=S)N(Cc2ccc(C)cc2)Cc2cccnc2)c1`, the z-score is reported as inactive: -0.64.
In the case of `COc1cc(/C=N/Nc2nc(N3CCCC3)nc(N3CCCC3)n2)ccc1O`, the z-score is reported as inactive: -0.25.
With `COC(=O)C1=C(C)N(C)C(C)=C(C(=O)OC)C1c1ccncc1` the z-score was inactive: -1.
For `COc1ccc(CCNc2cc(N3CCN(C(=O)c4ccccc4F)CC3)ccc2[N+](=O)[O-])cc1OC`, the z-score was inconclusive: -1.97.
For `Cc1ccc(NC(=O)c2ccc(Nc3c([N+](=O)[O-])cc([N+](=O)[O-])cc3[N+](=O)[O-])cc2)cc1`, the z-score was inconclusive: -2.74.
For `O=C(CN1C(=O)C2CC=CCC2C1=O)Nc1nnc(SCc2c(Cl)cccc2Cl)s1` (stereo unspecified), the z-score was inconclusive: -1.19.
With `Oc1c(C(c2cccs2)N2CCN(c3ccccc3)CC2)ccc2cccnc12` (stereo unspecified) the z-score was inconclusive: -8.47.
With `CN1c2ccccc2C(C)(C)C12C=Cc1cc(O)ccc1O2` (stereo unspecified) the z-score was inactive: -2.88.
In the case of `N#C/C(C(=O)c1ccccc1)=C1/SC=C(N)N1c1ccccc1`, the z-score is reported as active: 5.96.
With `CCc1c(C)sc2nc(C(C)C)nc(SCC(=O)N3CCc4ccccc4C3)c12` the z-score was inconclusive: -0.84.
In the case of `O=C(Nc1cccc(Cl)c1)N1CCSc2cc(Cl)ccc21`, the z-score is reported as inconclusive: -1.26.
For `Cc1c(C(=O)N2CCCCC2)oc2ccc(S(=O)(=O)N3CC(C)CC(C)C3)cc12` (stereo unspecified), the z-score was inconclusive: -3.14.
With `O=C(Nc1cccnc1)C1(F)C(F)(F)C(F)(F)C(F)(F)C(F)(F)C1(F)F` the z-score was inconclusive: -5.13.
For `CCOC(=O)c1cc(-c2ccc(C#N)cc2)nc2c1c(C)nn2CCC#N`, the z-score was inactive: -0.36.
In the case of `COc1ccc(-n2cc(-c3ccc(OC(F)F)cc3)[n+]3c2CCCCC3)cc1`, the z-score is reported as inconclusive: -4.58.
With `Cc1ccc(Cl)cc1N1CCN(C(=O)CN(C2CCCCC2)S(C)(=O)=O)CC1` the z-score was inconclusive: -1.77.
In the case of `CN(C)S(=O)(=O)c1ccc(-c2csc(N/N=C/c3ccc(O)cc3)n2)cc1`, the z-score is reported as inconclusive: -1.53.
With `CN(C)c1ccc(-c2nnn(CC(=O)N3c4ccccc4CCc4ccccc43)n2)cc1` the z-score was inconclusive: -0.68.
In the case of `C1=C(c2ccccc2)Nc2nnnn2C1`, the z-score is reported as active: 3.1.
With `O=S(=O)(/C(=C/c1ccc(C(F)(F)F)cc1)c1nc2ccccc2[nH]1)c1ccccc1` the z-score was inconclusive: -4.18.
With `CCN1C(=O)CSc2ccc(C(=O)NCc3ccccc3OC)cc21` the z-score was active: 3.1.
With `O=C(N/N=C/c1cnc2ccccc2n1)c1cccc(F)c1` the z-score was inconclusive: -4.71.
With `O=C(NCC1CCCO1)C1CCN(S(=O)(=O)N2CCCC2)CC1` (stereo unspecified) the z-score was active: 3.58.
With `N#Cc1cccc(NC(=O)CSc2nnc(-c3n[nH]c4ccccc34)o2)c1` the z-score was inactive: -0.23.
In the case of `COC(=O)[C@@H](NC(=O)Nc1cccc(OC)c1)C(C)C`, the z-score is reported as active: 3.01.
For `CC(=O)Nc1ccc(S(=O)(=O)NCC2CCC(C(=O)NCc3ccccc3)CC2)cc1` (stereo unspecified), the z-score was inactive: -1.04.
In the case of `CCCn1c(SCC(=O)Nc2nnc(C)s2)nnc1-c1ccoc1C`, the z-score is reported as inactive: 0.33.
For `O=C(COC(=O)c1cc(S(=O)(=O)N2CCOCC2)ccc1O)NCC1CCCO1` (stereo unspecified), the z-score was active: 3.77.
In the case of `CCOc1cccc(OCCOCCN2CCCC2)c1`, the z-score is reported as inactive: -0.09.
With `O=Cc1sc(Nc2ccccc2)nc1Cl` the z-score was active: 3.66.
In the case of `FC(F)(F)c1cccc(-c2nc3nc(Cl)c(Cl)nc3[nH]2)c1`, the z-score is reported as inconclusive: -1.9.
For `CC(=O)Nc1nc(C)c(Oc2ccccc2)c(=O)[nH]1`, the z-score was inactive: -0.34.
In the case of `COCCNC(=O)c1cc2c(=O)n3cccc(C)c3nc2n1C`, the z-score is reported as inconclusive: -6.79.
With `COC(=O)c1[nH]c(C)c(/C(O)=C2\C(=O)C(=O)N(CCN(C)C)C2c2ccccc2OC)c1C` (stereo unspecified) the z-score was inconclusive: -5.88.
With `O=C(N/N=C/c1c(O)ccc2ccccc12)c1[nH]ncc1Br` the z-score was inconclusive: -0.7.
In the case of `O=C(N/N=C/c1sc(N2CCOCC2)nc1-c1ccccc1)c1cccc(S(=O)(=O)N2CCOCC2)c1`, the z-score is reported as inconclusive: -3.44.
For `Cc1noc(C)c1COC(=O)c1cccc(S(=O)(=O)N2CCCCCC2)c1`, the z-score was inconclusive: -6.73.
For `CCn1cc([N+](=O)[O-])c(C(=O)Nc2ccn(Cc3ccccc3)n2)n1`, the z-score was inconclusive: -5.55.
In the case of `Cc1ccc(NC(=O)/C=C/c2ccc([N+](=O)[O-])s2)cc1`, the z-score is reported as active: 16.6.
For `CCc1nnc(NC(=O)CCC(=O)N2CCN(Cc3ccccc3)CC2)s1`, the z-score was inactive: 1.
In the case of `CCOc1ccc(NC2=NCC(=O)N2Cc2cccs2)cc1`, the z-score is reported as active: 4.8.
For `CCOc1cc(CNCc2ccncc2)cc(Br)c1OCc1ccccc1F`, the z-score was inconclusive: -1.84.
For `CCn1c2ccccc2c2cc(NC(=O)c3cc(OC)c(OC)c(OC)c3)ccc21`, the z-score was inconclusive: -2.28.
For `Cc1ccccc1N1CCN(c2ncnc3scc(-c4cccs4)c23)CC1`, the z-score was inconclusive: 0.04.
With `OCCNc1nc(Nc2ccccc2)nc2ccccc12` the z-score was inconclusive: -2.19.
In the case of `CC1(C)CC(=O)CC(=O)/C1=N\Nc1c(Cl)cc(Cl)cc1Cl`, the z-score is reported as inactive: -0.07.
With `COc1cc(CN2CCc3ccccc3C2)ccc1O` the z-score was inconclusive: -2.15.
With `CC1CCN(C(=O)CNS(=O)(=O)c2ccc(Br)s2)CC1` the z-score was active: 3.37.
With `CSc1cc(/C=N/O)c(SC)s1` the z-score was inactive: 0.4.
With `COc1ccc2[nH]cc(CCN=C3SCC(=O)N3C)c2c1` the z-score was inconclusive: -0.79.
In the case of `COc1cc(C(=O)N2CCN(c3ncnc4sc(C)c(C)c34)CC2)cc(OC)c1OC`, the z-score is reported as inconclusive: -3.74.
In the case of `COc1ccccc1CN(Cc1cc2cc(C)ccc2[nH]c1=O)Cc1nnnn1CC1CCCO1` (stereo unspecified), the z-score is reported as inactive: -1.04.
With `O=C(c1ccccc1)c1c2c(cc3sc4ccccc4[n+]13)-c1cccc3cccc-2c13` the z-score was inconclusive: 0.93.
For `CCOC(=O)c1c(NC(=O)C2COc3ccccc3O2)sc(C(C)=O)c1C` (stereo unspecified), the z-score was inconclusive: -3.84.
With `COc1ccc(-n2nnnc2SCC#CCO)cc1` the z-score was inconclusive: -1.33.

From PubChem BioAssay AID1625 (Sanford-Burnham Center for Chemical Genomics, 2009)
